PubChem BioAssay AID504774, Drosophila RNAi Screening Center – 2011
The deposit covers about 23,000 reagents; below is a random part of those with a known target gene and a result. 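Values are quantile-normalised luminescence on an arbitrary scale; higher means more cells surviving MMS.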 Names joined by + are all predicted targets of the reagent. Further read-outs or replicates are left out here.

- Assay: 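Genes required for cells to withstand methyl methanesulphonate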 (primary screen)
- Cells: Drosophila Kc167 cells
- Reagent: long dsRNA against Drosophila genes, about 0.25 µg dsRNA per well
- Timing: about 6 days: 3 days knock-down, then 3 days with or without MMS
- Conditions: methyl methanesulphonate 0.004% (w/v) for 3 days after knock-down
- Measured: 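Viability in wells given MMS, read as ATP luminescence, normalised by quantiles plate by plate and averaged across replicates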
- Scale: mean viability with MMS: higher = more surviving cells after MMS

Against ringer (ringmaker) [DRSC10455], the values are mean viability with MMS 3.54e6.
With knock-down of Cyp6a18 (Cytochrome P450 6a18) [DRSC16632], the screen gave mean viability with MMS 3.59e6.
APP-BP1 (beta-Amyloid precursor protein binding protein 1) [DRSC10920] showed mean viability with MMS 3.54e6.
Silencing of CG15356 [DRSC00386] resulted in: mean viability with MMS 3.39e6.
For Elovl7 (ELOVL fatty acid elongase 7) [DRSC15452] the deposit lists mean viability with MMS 3.57e6.
For Elovl7 (ELOVL fatty acid elongase 7) [DRSC21570] the deposit lists mean viability with MMS 3.33e6.
Knock-down of CG6901 [DRSC16129] came out at: mean viability with MMS 3.49e6.
After knock-down of CG7309 [DRSC03045], the screen gave mean viability with MMS 3.75e6.
For CG17207 [DRSC15198], the values are mean viability with MMS 3.50e6.
For Obp58b (Odorant-binding protein 58b) [DRSC04161], the entry reads mean viability with MMS 3.60e6.
CG16756 [DRSC18115] scored mean viability with MMS 3.52e6.
Against Asciz (ASCIZ zinc finger protein) [DRSC08421], the entry reads mean viability with MMS 3.42e6.
Against CG42715 (retired record) [DRSC05499], the entry reads mean viability with MMS 3.47e6.

6 entries from above, arranged by “mean viability with MMS”, lowest first:
Elovl7 (ELOVL fatty acid elongase 7) [DRSC21570] | mean viability with MMS = 3.33e6
CG6901 [DRSC16129] | mean viability with MMS = 3.49e6
CG17207 [DRSC15198] | mean viability with MMS = 3.50e6
Elovl7 (ELOVL fatty acid elongase 7) [DRSC15452] | mean viability with MMS = 3.57e6
Obp58b (Odorant-binding protein 58b) [DRSC04161] | mean viability with MMS = 3.60e6
CG7309 [DRSC03045] | mean viability with MMS = 3.75e6

Further reagents:
Against vrs (versager) [DRSC15832] the deposit lists mean viability with MMS 3.50e6.
Against O-fut1 (O-fucosyltransferase 1) [DRSC06138] the deposit lists mean viability with MMS 3.68e6.
Depletion of CG17612 [DRSC00505] resulted in: mean viability with MMS 3.51e6.
Against TyrRII (Tyramine receptor II) [DRSC15150], the values are mean viability with MMS 3.50e6.
For betaNACtes3 (Nascent-associated complex beta-subunit-like, testis 3) [DRSC20183], the entry reads mean viability with MMS 3.75e6.
With knock-down of Rtf1 [DRSC04085] the results were mean viability with MMS 3.26e6.
Phb1 (Prohibitin 1) [DRSC03563] showed mean viability with MMS 3.49e6.
BomS5 (Bomanin Short 5) [DRSC22306] showed mean viability with MMS 3.50e6.
With knock-down of CG2082 [DRSC12125], the screen gave mean viability with MMS 3.81e6.
Depletion of CG2186 [DRSC19838] gave: mean viability with MMS 3.61e6.
Depletion of CG4815 [DRSC15653] came out at: mean viability with MMS 3.75e6.
After knock-down of CG32971 [DRSC01372], the screen gave mean viability with MMS 3.52e6.
Knock-down of CG13862 [DRSC14712] came out at: mean viability with MMS 3.53e6.
Silencing of Cyp9b1 (Cytochrome P450 9b1) [DRSC07389] gave: mean viability with MMS 3.55e6.
With knock-down of CG1440 [DRSC17915], the record shows mean viability with MMS 3.88e6.
After knock-down of CR12628 + Mgstl [DRSC03702] the results were mean viability with MMS 3.57e6.
CR12628 + Mgstl [DRSC20568] gave mean viability with MMS 3.57e6.
Rpn12 (Regulatory particle non-ATPase 12) [DRSC11275] showed mean viability with MMS 3.13e6.
For Exo84 (Exocyst 84) [DRSC15965] the deposit lists mean viability with MMS 3.44e6.
Rassf (Ras association family member) [DRSC15612] scored mean viability with MMS 3.67e6.
For CG14851 [DRSC14975], the entry reads mean viability with MMS 3.55e6.
CG14851 [DRSC21500] scored mean viability with MMS 3.73e6.
